Measurements reported in PubChem BioAssay AID1259280 (Sanger Institute, 2017).

Screen: 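Kinome siRNA screen for partners that synergise with BYL719, cetuximab or trametinib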 (primary screen)
Cell system: human SNU407 colorectal cancer cells
Reagent: siRNA pool against human genes
Treatment: anchor drugs BYL719 at 1 µM, cetuximab at 5 µg/ml or trametinib at 10 nM, or DMSO vehicle alone; exposure time not given
Measurement: 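Viability relative to non-targeting control siRNA, expressed as robust z-score, plus a synergy score for each of the three anchor drugs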
Reading the numbers: viability z-score, no drug and viability vs control, no drug: higher = more cells survive the knock-down; synergy with trametinib and synergy with BYL719 and synergy with cetuximab: higher = stronger synergy of knock-down with drug
Hit rule: 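a knock-down counts as essential when its robust viability z-score without drug is below -3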
Meaning of the calls: active = essential (knock-down alone kills cells); inactive = no change without drug
The deposit covers 794 reagents; this is an unselected part. 12 of them (1.5%) count as active. 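Calls cover knock-down without drug only; synergy scores stand apart, values above 0.15 being treated as synergy.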 No viability above 1 is reported: the scale is capped. Not given: the amount of reagent, the time to read-out.

target | viability z-score, no drug | viability vs control, no drug (fraction of control) | synergy with trametinib | synergy with BYL719 | synergy with cetuximab | activity call
FGFR3 | 0.901 | 1 | 0.00955 | -0.0451 | 0.0418 | inactive
EGFR | -1.19 | 0.84 | -0.0593 | -0.00951 | -0.0934 | inactive
PRKDC | -0.623 | 0.884 | -0.0271 | -0.0294 | 0.0407 | inactive
ADCK1 | 0.901 | 1 | 0.0634 | 0.15 | 0.0417 | inactive
MST1R | 0.388 | 0.961 | 0.0145 | 0.129 | 0.0195 | inactive
FN1 | -0.872 | 0.865 | -0.133 | -0.129 | -0.125 | inactive
GSK3A | 0.458 | 0.966 | 0.0642 | 0.0209 | 0.0549 | inactive
GTF2H1 | -3.26 | 0.682 | -0.0366 | 0.0407 | -0.0535 | active
PGK2 | 0.901 | 1 | 0.0184 | 0.0878 | 0.137 | inactive
STK31 | 0.901 | 1 | -0.248 | -0.0618 | -0.0597 | inactive
PFKFB1 | -1.1 | 0.847 | 0.014 | 0.0498 | -0.0415 | inactive
CSNK2B | -0.476 | 0.895 | 0.0329 | 0.0127 | -0.0381 | inactive
BCR | 0.0956 | 0.938 | 0.064 | -0.0345 | -0.0774 | inactive
MAPK12 | 0.901 | 1 | 0.00109 | 0.027 | 0.0298 | inactive
CDK14 | 0.744 | 0.988 | -0.139 | 0.062 | -0.0419 | inactive
SPEG | 0.901 | 1 | -0.00808 | 0.0328 | 0.0466 | inactive
BRD2 | 0.737 | 0.987 | 0.101 | 0.16 | 0.122 | inactive
PRKCA | -0.267 | 0.911 | 0.00835 | 0.0447 | -0.132 | inactive
RPS6KA4 | 0.341 | 0.957 | -0.0271 | 0.0394 | -0.119 | inactive
UCK2 | -0.0632 | 0.926 | -0.0419 | -0.00152 | -0.106 | inactive
SLK | 0.901 | 1 | 0.0803 | 0.0173 | 0.00298 | inactive
CDK19 | 0.594 | 0.977 | 0.0284 | 0.012 | 0.0314 | inactive
CKB | 0.901 | 1 | -0.163 | -0.0733 | -0.000355 | inactive
CMPK1 | 0.901 | 1 | -0.0405 | 0.0291 | 0.031 | inactive
NEK11 | -0.0483 | 0.927 | 0.0411 | 0.0212 | -0.0134 | inactive
AURKB | 0.25 | 0.95 | 0.0364 | 0.0654 | 0.0997 | inactive
GSK3B | 0.901 | 1 | -0.0268 | 0.022 | -0.0783 | inactive
PDPK1 | 0.775 | 0.99 | 0.0282 | 0.182 | 0.078 | inactive
ABL1 | 0.276 | 0.952 | 0.0237 | 0.0511 | 0.0142 | inactive
GCK | -0.312 | 0.907 | -0.0205 | 0.0346 | 0.0325 | inactive
MAP4K1 | -0.75 | 0.874 | -0.0886 | -0.0432 | -0.0624 | inactive
CHEK1 | -2.65 | 0.728 | -0.0603 | 0.0113 | -0.0272 | inactive
PIK3C2B | 0.397 | 0.961 | 0.0452 | 0.0458 | -0.0154 | inactive
IP6K2 | 0.901 | 1 | -0.0452 | 0.0898 | 0.143 | inactive
MSR1 | 0.615 | 0.978 | 0.0473 | 0.2 | 0.0519 | inactive
PSKH2 | 0.901 | 1 | -0.0467 | 0.0878 | -0.0136 | inactive
TRPM6 | 0.901 | 1 | -0.0942 | 0.0712 | -0.0616 | inactive
ATR | 0.403 | 0.962 | 0.0138 | 0.0675 | 0.0459 | inactive
PFKP | -0.413 | 0.9 | -0.0214 | 0.00341 | -0.0886 | inactive
STK40 | -0.489 | 0.894 | -0.0632 | -0.00873 | 0.0304 | inactive
STK17A | -0.402 | 0.9 | -0.038 | 0.0535 | -0.0407 | inactive
CALM1 | 0.901 | 1 | 0.0299 | 0.0308 | 0.0272 | inactive
ADGRL2 | -0.322 | 0.907 | -0.159 | -0.067 | -0.0901 | inactive
WNK2 | 0.901 | 1 | -0.0827 | -0.00674 | -0.0751 | inactive
PRKCB | -0.605 | 0.885 | 0.0155 | 0.00233 | 0.0802 | inactive
CAMK1G | 0.901 | 1 | 0.0195 | 0.0546 | 0.000996 | inactive
MELK | 0.901 | 1 | -0.0517 | 0.0614 | 0.0312 | inactive
PLK4 | -1.49 | 0.818 | -0.00791 | 0.0583 | 0.00616 | inactive
EXOSC10 | -1.1 | 0.847 | 0.0124 | 0.0456 | -0.0771 | inactive
PRKAA1 | 0.312 | 0.955 | -0.0306 | -0.0691 | -0.121 | inactive

Reagents above called active:
target | viability z-score, no drug | viability vs control, no drug (fraction of control) | synergy with trametinib | synergy with BYL719 | synergy with cetuximab | activity call
GTF2H1 | -3.26 | 0.682 | -0.0366 | 0.0407 | -0.0535 | active
